The whole screen tested about 350,000 compounds, of which about 6,000 (1.7%) were called active. Inconclusive means that the source gave no clear call. Such entries were picked first, then a sample of the others. Cut-off read from the data, not from the text of the source: active = CPE inhibition above about 20% (passing the limit was not always enough); inconclusive = no clear call, values can overlap the other calls; tested in BHK-21 cells.
experiment: protection of cells from dengue 2 killing – plate reader, single concentration, primary screen (AID 651640); conditions: DENV2-infected cells, cytopathic effect rescue, at 9.99 µM, active compounds read high;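 note: 0% = median of neutral control wells and 100% = median of positive control wells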

SMILES | CPE inhibition
Cc1ccc(S(=O)(=O)N(C)C[C@@H]2OCc3ccccc3-c3c(n(C)c4ccccc34)C(=O)N([C@@H](C)CO)C[C@H]2C)cc1 | inactive: -2.31%
CO[C@@H]1CN(C)C(=O)c2ccc(NC(=O)c3ccccc3)cc2OC[C@H](C)N(C(=O)CN(C)C)C[C@@H]1C | active: 33.8%
CN1CCN(C(=O)c2cc3ccccc3[nH]2)CC1 | inconclusive: 26.9%
C[C@H]1CCCCO[C@@H](CN(C)C(=O)Nc2ccc3c(c2)OCO3)[C@@H](C)CN([C@@H](C)CO)C(=O)c2cc(NC(=O)Cc3ccccc3)ccc2O1 | inactive: 9.6%
O=C(C[C@@H]1C=C[C@@H](NC(=O)c2ccncc2)[C@@H](CO)O1)NCC1CC1 | inactive: 1.25%
C[C@@H]1CN([C@@H](C)CO)S(=O)(=O)c2ccc(-c3cccnc3)cc2O[C@@H]1CN(C)C(=O)C1CCC1 | inconclusive: 31.7%
CCc1nnc(NC(=O)c2ncc(Cl)c(Cl)c2Cl)s1 | inconclusive: 34.2%
O=C(C[C@H]1C[C@H]2c3cc(NC(=O)C4CCC4)ccc3O[C@H]2[C@@H](CO)O1)NCc1cccnc1 | inconclusive: 25.6%
C[C@H]1CN([C@@H](C)CO)C(=O)c2cc(Br)cnc2O[C@H]1CN(C)C(=O)C1CCC1 | inconclusive: 40.9%
COCc1cn(CC[C@H]2CC[C@@H](NC(=O)Nc3ccc(F)cc3)[C@@H](CO)O2)nn1 | inconclusive: 22.2%
COC(=O)c1sc(S(=O)(=O)N2CCCCC2C)c(C(=O)OC)c1C (configuration not stated) | inconclusive: 36%
O=C(Nc1ccccc1F)N1C[C@@H]2[C@H](c3ccccc31)[C@@H](CO)N2C(=O)c1ccc(F)cc1 | inactive: -7.93%
O=C(C1CCOCC1)N1CC(=O)N2[C@@H](CO)[C@H](c3ccc(C#CC4CCCC4)cc3)[C@@H]2C1 | active: 52.4%
CO[C@@H]1CN(C)C(=O)c2ccc(NC(=O)c3ccc(F)cc3)cc2OC[C@H](C)N(C(=O)CN(C)C)C[C@H]1C | inconclusive: 20.4%
Cc1cc(NC(=O)Cn2c(=O)oc3ccc(Cl)cc32)no1 | active: 44.9%
COCC(=O)Nc1ccc2c(c1)C(=O)N(C)[C@H]1CC[C@H](CC(=O)Nc3cn(C)nc3C)O[C@H]1CO2 | inactive: -2.74%
C[C@@H]1CN([C@H](C)CO)C(=O)c2cc(Br)cnc2O[C@@H]1CN(C)Cc1ccc(-c2ccccc2)cc1 | inconclusive: 27%
Cc1ccc2cccc(OCc3ccc(Br)cc3)c2n1 | inconclusive: 31.4%
COc1cccc(C(=O)O/N=C2\CCS(=O)(=O)c3sccc32)c1 | inconclusive: 33.3%
Cc1ccc(S(=O)(=O)N(C)C[C@@H]2OCCCC[C@H](C)Oc3ccc(NC(=O)Cc4ccccc4)cc3C(=O)N([C@@H](C)CO)C[C@H]2C)cc1 | inconclusive: 21%
COc1cc2c(cc1O)C(Cc1ccc(O)cc1)[N+](C)([O-])CC2 (configuration not stated) | inconclusive: 36.2%
CN(C)CC(=O)N[C@H]1CC[C@@H](CC(=O)NCc2ccc(Cl)cc2)O[C@H]1CO | inconclusive: 38%
CCc1ccc(-c2cc(C)no2)cc1S(=O)(=O)Nc1ccc(C)cn1 | inactive: -8.27%
CCn1cc(C(=O)O)c(=O)c2cc(F)c(N3CCN(C(=S)NC(=O)c4ccccc4Cl)CC3)cc21 | inconclusive: 21.3%

SMILES | CPE inhibition
COc1ccc(N(CC(=O)N2CCCCCC2)S(C)(=O)=O)cc1Cl | inconclusive: 25%
O=C(C[C@@H]1CC[C@H]2[C@@H](COC[C@@H](O)CN2S(=O)(=O)c2cccc(Cl)c2)O1)N1CCOCC1 | active: 24.1%
CO[C@H]1CN(C)C(=O)c2ccc(NC(=O)c3cccc(F)c3)cc2OC[C@@H](C)N(C)C[C@H]1C | inactive: -1.76%
COc1ccc(CN(C)C[C@@H]2OCCCC[C@H](C)Oc3ccc(NS(=O)(=O)c4ccc(F)cc4)cc3C(=O)N([C@@H](C)CO)C[C@H]2C)cc1 | active: 59%
CN1C(=O)C(C)(C)c2cc(S(=O)(=O)NCCc3ccc(Cl)cc3)ccc21 | inconclusive: 38%
O=C(NCC1CCCCC1)c1cccc(S(=O)(=O)N2CCCC2)c1 | inconclusive: 79.1%
CCOc1cccc(/C=N/NC(=O)c2cc(C3CC3)[nH]n2)c1O | inactive: -7.04%
CC(C)(C)C1CCC(OC(=O)C[N+]2(C)CCCCC2)CC1 (configuration not stated) | inactive: 1.04%
COC(=O)c1sccc1NC(=O)CC1C(=O)NCCN1C(=O)c1ccccc1 (configuration not stated) | inactive: -2.27%
CCCC(C(=O)NC1CCCC1)N(C(=O)c1snc(C(N)=O)c1N)c1ccc(OCC)cc1 (configuration not stated) | inconclusive: 23.4%
C[C@@H]1CN([C@@H](C)CO)C(=O)c2cccc(NC(=O)Nc3ccccc3)c2O[C@H]1CN(C)S(=O)(=O)c1ccccc1 | active: 39.5%
N#C[C@H]1[C@@H](c2ccccc2C2=CCCC2)[C@@H](CO)N1C(=O)NC1CCCC1 | inconclusive: 33.4%
COc1ccc(CCN2CCCn3c2nc2c3c(=O)[nH]c(=O)n2C)cc1OC | inconclusive: 31.1%
COc1ccc(NC(=O)N(C)C[C@H]2Oc3c(NC(=O)c4ccc(-c5nccs5)cc4)cccc3C(=O)N([C@H](C)CO)C[C@@H]2C)cc1 | inconclusive: 24.2%
COc1ccc(NC(=O)CSc2nc(N)cc(=O)[nH]2)cc1S(=O)(=O)N1CCCCC1 | inconclusive: 26.4%
C[C@@H]1CN([C@@H](C)CO)C(=O)Cc2cc(NC(=O)CCN3CCOCC3)ccc2O[C@H]1CN(C)Cc1ccc(C(=O)O)cc1 | inactive: 3.19%
CCOC(=O)c1sc(N2C(=O)C(O)=C(C(=O)c3ccc(C)o3)C2c2ccc(OC)c(OC)c2)nc1C (configuration not stated) | inconclusive: 20.3%
COc1cc(C(=O)Nc2cccc(C)n2)ccc1OCC(=O)N1CCOCC1 | inconclusive: 26.8%
CCNC(=O)[C@H]1[C@H](CO)[C@H]2Cn3c(ccc(-c4cccc(F)c4)c3=O)[C@H]2N1Cc1nccs1 | inactive: -9.01%
Cc1ccc2c(COC(=O)CNC(=O)c3ccccc3)cc(=O)oc2c1 | active: 118%
Cc1ccc(C)c(S(=O)(=O)N2CCN(C(=O)CCNS(=O)(=O)c3ccccc3)CC2)c1 | inconclusive: 22.6%
Cc1cc2nc3n(c2cc1C)CC1CC(C(=O)NCc2ccco2)N(C)C31 (configuration not stated) | inconclusive: 45.4%
CCCNC(=O)C1(C)CCN1C(=O)c1ccccc1CCc1ccccc1 (configuration not stated) | inconclusive: 53.4%
CCOC(=O)[C@]12CCC=C1N(Cc1ccc(Cl)cc1Cl)C(=O)[C@H](CC(=O)NCc1ccccc1)C2 | inconclusive: 52.7%

A few values from the results shown:
CPE inhibition, `Cc1ccc2cccc(OCc3ccc(Br)cc3)c2n1` reads inconclusive: 31.4%
CPE inhibition, `C[C@@H]1CN([C@H](C)CO)C(=O)c2cc(Br)cnc2O[C@@H]1CN(C)Cc1ccc(-c2ccccc2)cc1` reads inconclusive: 27%
CPE inhibition, `COC(=O)c1sccc1NC(=O)CC1C(=O)NCCN1C(=O)c1ccccc1` (configuration not stated) reads inactive: -2.27%

Continuation:

SMILES | CPE inhibition
O=C(NCc1cc(F)cc(F)c1)[C@H]1[C@H](CO)[C@H]2Cn3c(cccc3=O)[C@@H]1N2C(=O)c1ccccn1 | inconclusive: 32%
Clc1ccc(Nc2ncnc3c2cnn3-c2ccccc2)cc1 | inconclusive: 28.5%
C/C=C/c1ccc2c(c1)O[C@H](CN(C)C(=O)NC(C)C)[C@H](C)CN([C@@H](C)CO)S2(=O)=O | inactive: -5.18%
CC(C)(C)C(=O)Nc1cc(NC(=O)C(C)(C)C)cc(C(=O)NNC(=O)c2ccncc2)c1 | inactive: 12.9%
CCN(CC)C(=O)COc1ccc(/C(C)=N/NC(=O)c2ccccc2Br)cc1 | inconclusive: 20.4%
CO[C@@H]1CN(C)C(=O)c2ccc(NC(=O)c3ccc(F)cc3)cc2OC[C@H](C)N(C(=O)c2ccc(F)cc2)C[C@H]1C | inconclusive: 22.1%
CCOC(=O)C1CCN(c2c(NCCN3CCCCC3C)c(=O)c2=O)CC1 (configuration not stated) | inconclusive: 64%
CC1(C)C(C=C(Cl)Cl)C1C(=O)N(Cc1ccccc1Cl)C1CCS(=O)(=O)C1 (configuration not stated) | inconclusive: 21.7%
C[C@@H](O)C#Cc1ccc([C@@H]2[C@H]3CN(C(=O)Nc4ccccc4)CCCCN3[C@H]2CO)cc1 | inconclusive: 39%
Cc1cc(Br)cc(C)c1OCC(=O)NNC(=O)c1cccs1 | inconclusive: 45.1%
Cc1ccsc1C(=O)N1CCC1(C)C(=O)NS(=O)(=O)c1ccc(C#N)cc1 (configuration not stated) | inconclusive: 23.2%
CC(C)C(=O)N1CCN(c2ccc(NC(=O)COc3ccccc3[N+](=O)[O-])cc2)CC1 | inconclusive: 26.1%
COc1ccc(S(=O)(=O)N2CCC(C(=O)NCCC(=O)Nc3ccc(Cl)cc3)CC2)cc1 | inconclusive: 30.4%
CCc1cccc(C)c1NC(=S)N1CCCCC1c1cccnc1 (configuration not stated) | inconclusive: 20.5%
COc1cccc(CN(C)C(=O)CN2C(=O)NC3(CCCc4ccccc43)C2=O)c1 (configuration not stated) | active: 73.4%
CNC(=O)C[C@@H]1C(=O)N(CCc2ccccc2)CC1(C)C | inactive: -7.42%
C[C@H]1CN([C@@H](C)CO)S(=O)(=O)c2ccc(-c3cncnc3)cc2O[C@H]1CN(C)Cc1ccncc1 | active: 35.7%
N#Cc1ccc(-c2ccc(C3[C@@H]4CN(S(=O)(=O)c5ccc(F)cc5)C[C@H]3N4)cc2)cc1 (some centres not stated) | inconclusive: 29.8%
CC(C)NC(=O)N(C)C[C@@H]1OCc2cn(nn2)CCCC(=O)N([C@H](C)CO)C[C@H]1C | inconclusive: 23.3%
C=C(C)COc1cc2oc(=O)c(CC(=O)N3C[C@H]4C[C@@H](C3)c3cccc(=O)n3C4)c(C)c2cc1Cl | inconclusive: 53.4%
C[C@H](CO)N1C[C@H](C)[C@H](CN(C)C)Oc2ccc(NC(=O)CCN3CCOCC3)cc2C1=O | inconclusive: 22.7%
C[C@]12C(=O)N(c3ccccc3)C(=O)N1[C@@H]1c3ccccc3OC[C@@H]1[C@H]2c1ccccc1 | active: 97%
COC(=O)/C=C/C(=O)Nc1cccc(C(F)(F)F)c1 | inconclusive: 23.3%
COCC(=O)N1CC[C@H]2[C@H](CO)Nc3ccc(C#Cc4ccccc4)cc3[C@H]21 | inconclusive: 22.2%
